# Test results as given in the supplement of paper PMC10849652.
# Sequences of proteins named here, by UniProt entry; tags and fusion partners are left off. A change or cut given only in a name is not applied to a line headed by its entry.
# UniProt Q86VV8: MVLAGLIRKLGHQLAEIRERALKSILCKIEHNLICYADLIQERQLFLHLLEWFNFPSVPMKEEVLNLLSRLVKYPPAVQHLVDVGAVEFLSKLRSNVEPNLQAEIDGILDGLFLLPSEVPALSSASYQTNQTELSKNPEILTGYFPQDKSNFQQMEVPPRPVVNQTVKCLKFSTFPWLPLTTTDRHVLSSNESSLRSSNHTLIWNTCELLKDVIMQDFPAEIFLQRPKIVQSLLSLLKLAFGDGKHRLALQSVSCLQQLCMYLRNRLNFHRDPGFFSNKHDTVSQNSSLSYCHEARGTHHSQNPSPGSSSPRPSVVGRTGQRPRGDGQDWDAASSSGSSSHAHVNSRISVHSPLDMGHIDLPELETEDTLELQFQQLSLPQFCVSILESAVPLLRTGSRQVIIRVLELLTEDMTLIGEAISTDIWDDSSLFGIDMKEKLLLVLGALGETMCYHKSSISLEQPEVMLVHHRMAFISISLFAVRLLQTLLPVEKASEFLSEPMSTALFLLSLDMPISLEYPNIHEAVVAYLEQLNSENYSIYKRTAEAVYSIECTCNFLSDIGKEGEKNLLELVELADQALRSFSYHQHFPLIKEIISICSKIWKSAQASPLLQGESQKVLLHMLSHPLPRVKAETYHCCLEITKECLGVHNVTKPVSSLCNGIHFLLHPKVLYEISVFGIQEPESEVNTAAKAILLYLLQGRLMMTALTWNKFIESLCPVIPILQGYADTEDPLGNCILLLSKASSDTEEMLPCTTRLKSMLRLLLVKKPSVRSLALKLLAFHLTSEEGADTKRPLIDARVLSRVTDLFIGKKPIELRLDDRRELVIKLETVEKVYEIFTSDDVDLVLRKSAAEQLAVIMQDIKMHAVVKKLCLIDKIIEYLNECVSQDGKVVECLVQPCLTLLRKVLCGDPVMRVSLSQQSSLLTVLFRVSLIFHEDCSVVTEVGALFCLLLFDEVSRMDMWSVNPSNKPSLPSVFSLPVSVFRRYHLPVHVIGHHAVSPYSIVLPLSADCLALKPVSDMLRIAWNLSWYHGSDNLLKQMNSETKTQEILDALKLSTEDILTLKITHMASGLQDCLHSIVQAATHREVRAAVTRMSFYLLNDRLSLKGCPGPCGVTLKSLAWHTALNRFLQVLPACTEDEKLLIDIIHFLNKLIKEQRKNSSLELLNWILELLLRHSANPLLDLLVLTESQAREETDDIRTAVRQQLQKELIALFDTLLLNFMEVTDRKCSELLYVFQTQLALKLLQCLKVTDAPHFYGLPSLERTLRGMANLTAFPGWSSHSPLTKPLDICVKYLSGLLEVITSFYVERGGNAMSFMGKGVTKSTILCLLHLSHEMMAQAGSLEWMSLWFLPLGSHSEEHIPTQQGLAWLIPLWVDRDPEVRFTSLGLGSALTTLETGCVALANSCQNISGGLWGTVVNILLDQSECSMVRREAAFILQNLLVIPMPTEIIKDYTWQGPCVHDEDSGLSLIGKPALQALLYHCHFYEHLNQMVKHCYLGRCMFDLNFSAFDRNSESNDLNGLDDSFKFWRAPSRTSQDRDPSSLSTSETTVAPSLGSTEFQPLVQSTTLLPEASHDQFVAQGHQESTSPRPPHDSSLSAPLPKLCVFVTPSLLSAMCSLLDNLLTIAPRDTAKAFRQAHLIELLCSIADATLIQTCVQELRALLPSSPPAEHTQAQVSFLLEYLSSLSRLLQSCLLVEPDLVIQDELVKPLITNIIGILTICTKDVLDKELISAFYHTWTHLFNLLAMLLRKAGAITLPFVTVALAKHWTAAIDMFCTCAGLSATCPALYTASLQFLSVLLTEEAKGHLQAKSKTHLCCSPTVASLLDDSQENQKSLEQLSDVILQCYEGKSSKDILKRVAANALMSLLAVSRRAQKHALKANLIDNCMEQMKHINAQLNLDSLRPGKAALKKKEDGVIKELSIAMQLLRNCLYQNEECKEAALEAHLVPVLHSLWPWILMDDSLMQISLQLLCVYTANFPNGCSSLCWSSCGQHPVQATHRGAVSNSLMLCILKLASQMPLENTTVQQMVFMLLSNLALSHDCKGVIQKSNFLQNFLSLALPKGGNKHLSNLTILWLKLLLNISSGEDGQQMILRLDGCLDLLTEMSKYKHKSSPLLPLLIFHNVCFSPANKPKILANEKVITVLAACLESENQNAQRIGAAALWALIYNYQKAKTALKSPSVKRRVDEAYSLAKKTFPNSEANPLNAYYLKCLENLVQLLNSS
# UniProt P31949: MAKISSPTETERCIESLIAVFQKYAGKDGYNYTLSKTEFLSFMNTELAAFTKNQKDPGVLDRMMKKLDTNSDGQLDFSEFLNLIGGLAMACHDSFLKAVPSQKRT
# UniProt P29034: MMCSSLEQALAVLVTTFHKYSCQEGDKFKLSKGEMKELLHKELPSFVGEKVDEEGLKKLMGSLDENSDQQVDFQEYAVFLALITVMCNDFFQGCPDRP
# UniProt Q9HA92: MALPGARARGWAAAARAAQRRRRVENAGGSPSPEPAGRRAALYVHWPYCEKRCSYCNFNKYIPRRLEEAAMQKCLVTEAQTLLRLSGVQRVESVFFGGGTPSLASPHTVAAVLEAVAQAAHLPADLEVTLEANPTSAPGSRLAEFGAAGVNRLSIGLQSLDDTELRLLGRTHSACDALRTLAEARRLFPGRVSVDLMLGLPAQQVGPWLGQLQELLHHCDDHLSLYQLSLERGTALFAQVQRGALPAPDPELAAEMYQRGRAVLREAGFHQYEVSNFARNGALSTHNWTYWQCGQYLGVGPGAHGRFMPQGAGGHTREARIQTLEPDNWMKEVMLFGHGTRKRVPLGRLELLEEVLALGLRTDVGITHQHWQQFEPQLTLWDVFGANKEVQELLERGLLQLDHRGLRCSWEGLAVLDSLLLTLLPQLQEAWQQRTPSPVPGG
# UniProt O95059: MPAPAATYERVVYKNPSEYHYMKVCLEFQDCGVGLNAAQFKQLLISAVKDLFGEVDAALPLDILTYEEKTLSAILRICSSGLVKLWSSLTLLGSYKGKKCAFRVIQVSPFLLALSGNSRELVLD
# UniProt Q96CM3: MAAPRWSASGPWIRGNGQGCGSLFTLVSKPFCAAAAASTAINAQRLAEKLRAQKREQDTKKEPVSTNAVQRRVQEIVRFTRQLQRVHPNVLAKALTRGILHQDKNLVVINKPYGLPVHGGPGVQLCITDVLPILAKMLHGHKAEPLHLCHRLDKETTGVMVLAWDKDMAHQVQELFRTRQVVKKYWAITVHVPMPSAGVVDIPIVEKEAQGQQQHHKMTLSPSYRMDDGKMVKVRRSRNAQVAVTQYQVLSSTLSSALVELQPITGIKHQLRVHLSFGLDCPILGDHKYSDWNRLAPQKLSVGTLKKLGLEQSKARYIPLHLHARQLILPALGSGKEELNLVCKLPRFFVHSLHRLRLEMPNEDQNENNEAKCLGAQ
# UniProt Q8N5L8: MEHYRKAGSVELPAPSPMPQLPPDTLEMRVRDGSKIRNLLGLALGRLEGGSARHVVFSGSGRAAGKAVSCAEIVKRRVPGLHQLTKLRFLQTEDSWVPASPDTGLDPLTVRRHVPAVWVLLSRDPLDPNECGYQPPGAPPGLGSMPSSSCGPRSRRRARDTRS
# UniProt P28702: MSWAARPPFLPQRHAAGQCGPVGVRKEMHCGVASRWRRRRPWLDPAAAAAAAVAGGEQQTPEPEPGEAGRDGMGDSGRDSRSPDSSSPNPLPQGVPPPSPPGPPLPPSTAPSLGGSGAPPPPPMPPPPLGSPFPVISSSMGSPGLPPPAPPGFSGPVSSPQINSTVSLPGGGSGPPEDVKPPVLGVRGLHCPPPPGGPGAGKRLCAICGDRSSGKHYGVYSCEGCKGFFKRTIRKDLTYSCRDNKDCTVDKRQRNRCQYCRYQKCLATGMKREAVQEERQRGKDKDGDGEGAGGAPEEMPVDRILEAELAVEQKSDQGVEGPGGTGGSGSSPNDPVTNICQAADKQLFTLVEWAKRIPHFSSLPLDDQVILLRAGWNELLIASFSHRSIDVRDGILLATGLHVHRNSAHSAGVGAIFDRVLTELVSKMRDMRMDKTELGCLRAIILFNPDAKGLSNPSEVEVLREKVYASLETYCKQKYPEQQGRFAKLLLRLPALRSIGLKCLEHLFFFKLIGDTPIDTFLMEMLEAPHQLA
# UniProt Q6PCB5: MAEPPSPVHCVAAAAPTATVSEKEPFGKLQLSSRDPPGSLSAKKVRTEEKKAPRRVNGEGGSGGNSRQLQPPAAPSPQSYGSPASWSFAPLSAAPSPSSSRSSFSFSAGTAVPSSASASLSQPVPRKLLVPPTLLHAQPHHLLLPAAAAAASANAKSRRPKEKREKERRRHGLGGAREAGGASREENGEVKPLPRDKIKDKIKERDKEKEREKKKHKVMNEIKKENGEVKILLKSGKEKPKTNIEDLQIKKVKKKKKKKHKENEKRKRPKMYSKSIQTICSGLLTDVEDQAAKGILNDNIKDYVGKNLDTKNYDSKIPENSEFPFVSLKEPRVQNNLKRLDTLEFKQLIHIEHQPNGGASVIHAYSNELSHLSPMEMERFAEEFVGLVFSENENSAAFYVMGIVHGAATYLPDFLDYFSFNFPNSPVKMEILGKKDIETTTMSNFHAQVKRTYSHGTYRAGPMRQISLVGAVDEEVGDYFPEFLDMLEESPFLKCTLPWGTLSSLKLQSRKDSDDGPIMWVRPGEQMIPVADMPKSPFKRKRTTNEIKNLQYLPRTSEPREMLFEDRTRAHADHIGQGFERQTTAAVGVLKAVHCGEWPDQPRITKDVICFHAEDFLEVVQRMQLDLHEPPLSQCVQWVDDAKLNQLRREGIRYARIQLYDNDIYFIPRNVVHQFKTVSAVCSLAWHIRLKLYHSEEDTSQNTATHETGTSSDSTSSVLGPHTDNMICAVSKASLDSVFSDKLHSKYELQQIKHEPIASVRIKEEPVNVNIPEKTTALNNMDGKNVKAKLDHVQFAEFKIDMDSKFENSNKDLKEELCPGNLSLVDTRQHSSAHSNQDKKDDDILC
# UniProt Q9Y3A4: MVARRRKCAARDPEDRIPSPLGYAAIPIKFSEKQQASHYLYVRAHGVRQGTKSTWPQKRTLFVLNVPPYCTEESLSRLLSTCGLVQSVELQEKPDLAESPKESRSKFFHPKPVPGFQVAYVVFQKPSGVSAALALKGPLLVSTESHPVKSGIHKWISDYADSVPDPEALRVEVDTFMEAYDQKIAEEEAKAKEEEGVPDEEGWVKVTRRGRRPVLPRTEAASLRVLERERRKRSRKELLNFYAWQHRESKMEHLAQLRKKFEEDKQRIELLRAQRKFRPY
# UniProt Q9NYV6: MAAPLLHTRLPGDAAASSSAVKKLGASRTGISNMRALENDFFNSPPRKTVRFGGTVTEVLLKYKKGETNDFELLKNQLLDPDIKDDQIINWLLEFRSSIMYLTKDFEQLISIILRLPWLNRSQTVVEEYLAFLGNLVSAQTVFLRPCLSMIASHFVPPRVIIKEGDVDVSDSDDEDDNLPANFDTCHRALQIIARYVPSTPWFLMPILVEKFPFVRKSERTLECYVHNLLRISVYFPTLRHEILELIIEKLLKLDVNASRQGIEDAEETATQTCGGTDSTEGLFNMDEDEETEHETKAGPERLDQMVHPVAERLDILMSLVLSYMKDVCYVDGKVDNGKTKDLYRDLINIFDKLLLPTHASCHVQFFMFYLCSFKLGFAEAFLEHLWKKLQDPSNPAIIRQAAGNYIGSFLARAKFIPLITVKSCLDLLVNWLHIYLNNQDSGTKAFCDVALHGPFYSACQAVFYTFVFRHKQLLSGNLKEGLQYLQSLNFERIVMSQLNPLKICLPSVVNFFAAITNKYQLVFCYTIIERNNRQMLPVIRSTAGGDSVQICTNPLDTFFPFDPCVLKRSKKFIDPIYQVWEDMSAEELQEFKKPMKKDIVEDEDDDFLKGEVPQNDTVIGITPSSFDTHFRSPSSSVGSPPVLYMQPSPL
# UniProt Q15418, whole entry, looked up: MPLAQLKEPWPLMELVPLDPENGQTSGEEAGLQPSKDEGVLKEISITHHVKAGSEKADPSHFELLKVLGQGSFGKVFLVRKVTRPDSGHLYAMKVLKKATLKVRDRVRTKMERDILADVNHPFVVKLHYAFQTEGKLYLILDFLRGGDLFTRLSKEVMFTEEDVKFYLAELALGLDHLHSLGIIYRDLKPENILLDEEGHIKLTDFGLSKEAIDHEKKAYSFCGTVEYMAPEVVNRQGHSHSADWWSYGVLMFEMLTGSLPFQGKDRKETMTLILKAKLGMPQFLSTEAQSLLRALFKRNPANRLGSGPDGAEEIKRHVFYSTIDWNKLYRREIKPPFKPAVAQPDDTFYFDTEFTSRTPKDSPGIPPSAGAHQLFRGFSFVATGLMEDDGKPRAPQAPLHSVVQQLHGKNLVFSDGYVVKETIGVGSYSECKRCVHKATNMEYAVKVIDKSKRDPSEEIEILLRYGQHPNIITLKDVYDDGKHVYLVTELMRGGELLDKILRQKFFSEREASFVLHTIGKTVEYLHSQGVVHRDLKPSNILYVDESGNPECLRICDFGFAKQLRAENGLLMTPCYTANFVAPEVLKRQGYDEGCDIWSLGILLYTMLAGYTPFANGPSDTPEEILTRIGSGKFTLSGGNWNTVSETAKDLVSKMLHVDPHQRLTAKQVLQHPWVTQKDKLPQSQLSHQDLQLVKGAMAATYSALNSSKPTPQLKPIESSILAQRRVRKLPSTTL
# The other results are listed elsewhere or left out.
# Compound: CCn1cc(-c2ccnc3[nH]c(-c4cccc(CN(C)C)c4)cc23)c(-c2ccc(NC(=O)N(C)C)cc2)n1
# Assay: log2 fold change, soluble protein after heating vs DMSO (PISA); higher = thermal stabilisation; K562 lysate, 10 uM; active = over 0.2 and 3.5 SD of the protein, either way, in both replicates (recomputed)
# Method in brief: (§1)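 Log-two fold change in thermal stability relative to solvent controls is reported from duplicates. For each sample, crude K562 extract from dounce-homogenised pellets in PBS pH 7.4 with 1 mM MgCl2, at 1 mg/mL protein, was treated with 10 μM compound for 30 min. Aliquots heated for 3 min across 48°C-58°C were pooled, brought to 0.5% NP-40 at 4°C and cleared at 21,000xg for 90 min. The supernatant was quantified by TMTpro 16plex LC-MS/MS with channel sums equalised.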
row,Target,log2 fold change
1,RPS27L (UniProt Q71UM5),inactive: 0.054
2,RTTN (UniProt Q86VV8),inactive: -0.347
3,S100A11 (UniProt P31949),inactive: -0.008
4,RTCA (UniProt O00442),inactive: -0.061
5,S100A2 (UniProt P29034),inactive: -0.497
6,RSRC2 (UniProt Q7L4I2),inactive: -0.058
7,RYR1 (UniProt P21817),inactive: 0.045
8,RSAD1 (UniProt Q9HA92),inactive: -0.314
9,RPP14 (UniProt O95059),inactive: 0.1
10,RPS26 (UniProt P62854),inactive: -0.192
11,RPP38 (UniProt P78345),inactive: -0.113
12,RPUSD4 (UniProt Q96CM3),inactive: -0.157
13,RREB1 isoform 2 (UniProt Q92766),inactive: 0.018
14,RPP25L (UniProt Q8N5L8),inactive: -0.048
15,RSF1 (UniProt Q96T23),inactive: 0.074
16,RPS6KA3 (UniProt P51812),inactive: -0.014
17,RXRB isoform 3 (UniProt P28702),inactive: -0.008
18,RSBN1L (UniProt Q6PCB5),inactive: -0.06
19,RPN2 (UniProt P04844),inactive: -0.084
20,RPS2 (UniProt P15880),inactive: 0.004
21,RPS3A (UniProt P61247),inactive: 0.042
22,RRP7A (UniProt Q9Y3A4),inactive: -0.012
23,RPS24 isoform 4 (UniProt P62847),inactive: 0.014
24,RRN3 (UniProt Q9NYV6),inactive: -0.083
25,RUFY3 isoform 2 (UniProt Q7L099),inactive: 0.455
26,RTL10 (UniProt Q7L3V2),inactive: 0.01
27,RPS6KA1 (UniProt Q15418),inactive: -0.004
28,RUVBL1 (UniProt Q9Y265),inactive: -0.009
29,S100A16 (UniProt Q96FQ6),inactive: 0.075

# Compound: CN1CCC(CNc2ccc3ncc(-c4cccc(OC(F)(F)F)c4)n3n2)CC1
# Assay: as above
# Method in brief: as §1
row,Target,log2 fold change
1,RPS27L (UniProt Q71UM5),inactive: 0.012
2,RTTN (UniProt Q86VV8),inactive: -0.316
3,S100A11 (UniProt P31949),inactive: -0.052
4,RTCA (UniProt O00442),inactive: 0.043
5,S100A2 (UniProt P29034),inactive: 0.482
6,RSRC2 (UniProt Q7L4I2),inactive: 0.024
7,RYR1 (UniProt P21817),inactive: 0.03
8,RSAD1 (UniProt Q9HA92),inactive: -0.041
9,RPP14 (UniProt O95059),inactive: 0.014
10,RPS26 (UniProt P62854),inactive: 0.045
11,RPP38 (UniProt P78345),inactive: 0.024
12,RPUSD4 (UniProt Q96CM3),inactive: 0.034
13,RREB1 isoform 2 (UniProt Q92766),inactive: 0.013
14,RPP25L (UniProt Q8N5L8),inactive: 0.038
15,RSF1 (UniProt Q96T23),inactive: -0.04
16,RPS6KA3 (UniProt P51812),inactive: 0.093
17,RXRB isoform 3 (UniProt P28702),inactive: -0.089
18,RSBN1L (UniProt Q6PCB5),inactive: 0.019
19,RPN2 (UniProt P04844),inactive: 0.033
20,RPS2 (UniProt P15880),inactive: -0.029
21,RPS3A (UniProt P61247),inactive: -0.061
22,RRP7A (UniProt Q9Y3A4),inactive: -0.009
23,RPS24 isoform 4 (UniProt P62847),inactive: 0.002
24,RRN3 (UniProt Q9NYV6),inactive: 0.024
25,RUFY3 isoform 2 (UniProt Q7L099),inactive: -0.149
26,RTL10 (UniProt Q7L3V2),inactive: -0.087
27,RPS6KA1 (UniProt Q15418),inactive: 0.116
28,RUVBL1 (UniProt Q9Y265),inactive: 0.043
29,S100A16 (UniProt Q96FQ6),inactive: 0.072

# Compound: CN1CCN(CCOc2cc(OC3CCOCC3)c3c(Nc4c(Cl)ccc5c4OCO5)ncnc3c2)CC1 [saracatinib]
# Assay: as above
# Method in brief: as §1
row,Target,log2 fold change
1,RPS27L (UniProt Q71UM5),inactive: -0.001
2,RTTN (UniProt Q86VV8),inactive: 0.047
3,S100A11 (UniProt P31949),inactive: 0.023
4,RTCA (UniProt O00442),inactive: 0.007
5,RSRC2 (UniProt Q7L4I2),inactive: -0.007
6,RYR1 (UniProt P21817),inactive: 0.057
7,RSAD1 (UniProt Q9HA92),inactive: -0.005
8,RPS26 (UniProt P62854),inactive: 0.032
9,RPP38 (UniProt P78345),inactive: -0.028
10,RPUSD4 (UniProt Q96CM3),inactive: -0.005
11,RWDD2B (UniProt P57060),inactive: 0.003
12,RREB1 isoform 2 (UniProt Q92766),inactive: 0.041
13,RPP25L (UniProt Q8N5L8),inactive: 0.009
14,RSF1 (UniProt Q96T23),inactive: -0.024
15,"RPS7, A0A2R8Y623",inactive: 0.348
16,S100A14 (UniProt Q9HCY8),inactive: 0.104
17,RPS6KA3 (UniProt P51812),inactive: 0.078
18,RXRB isoform 3 (UniProt P28702),inactive: -0.048
19,RSBN1L (UniProt Q6PCB5),inactive: 0.056
20,RPN2 (UniProt P04844),inactive: 0.008
21,RPS2 (UniProt P15880),inactive: -0.015
22,RPS3A (UniProt P61247),inactive: 0.022
23,RRP7A (UniProt Q9Y3A4),inactive: -0.05
24,RPS24 isoform 4 (UniProt P62847),inactive: 0.013
25,RRN3 (UniProt Q9NYV6),inactive: 0.214
26,S100A10 (UniProt P60903),inactive: 0.768
27,RUFY3 isoform 2 (UniProt Q7L099),inactive: 0.049
28,RTL10 (UniProt Q7L3V2),inactive: 0.101
29,RPS6KA1 (UniProt Q15418),inactive: 0.101
30,RUVBL1 (UniProt Q9Y265),inactive: 0.005
